The other results are listed elsewhere or left out. Repeats are few or missing, and single values can be far off.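 Cells were imaged in 1,536-well plates, and nuclei stained with an antibody against cleaved PARP were counted against all DNA-stained nuclei to give the apoptosis fraction. Screening doses were chosen to leave most cells alive, and resting and induced cleaved-PARP levels differ strongly between cell lines.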
Legend:
Assay in all cases: cleaved PARP positive nuclei fraction relative to DMSO control; melanoma cells; higher = more apoptosis
Conditions in all cases: library dose: low library concentration; 72 h
501Mel = tested on: 501Mel
A101D = tested on: A101D
A2058 = tested on: A2058
A375 = tested on: A375
C32 = tested on: C32
CBRC008 = tested on: CBRC008 (line from a melanoma biopsy)
CBRC014 = tested on: CBRC014 (line from a melanoma biopsy)
CBRC016 = tested on: CBRC016 (line from a melanoma biopsy)
CBRC017 = tested on: CBRC017 (line from a melanoma biopsy)
CBRC034 = tested on: CBRC034 (line from a melanoma biopsy)
COLO792 = tested on: COLO792
COLO800 = tested on: COLO800
COLO829 = tested on: COLO829
G361 = tested on: G361
IPC-298 = tested on: IPC-298
IST-MEL1 = tested on: IST-MEL1
LB2518-MEL = tested on: LB2518-MEL
LOXIMVI = tested on: LOXIMVI
MEL-HO = tested on: MEL-HO

Structure (SMILES) | cleaved PARP positive nuclei fraction (501Mel) [%] | cleaved PARP positive nuclei fraction (A101D) [%] | cleaved PARP positive nuclei fraction (A2058) [%] | cleaved PARP positive nuclei fraction (A375) [%] | cleaved PARP positive nuclei fraction (C32) [%] | cleaved PARP positive nuclei fraction (CBRC008) [%] | cleaved PARP positive nuclei fraction (CBRC014) [%] | cleaved PARP positive nuclei fraction (CBRC016) [%] | cleaved PARP positive nuclei fraction (CBRC017) [%] | cleaved PARP positive nuclei fraction (CBRC034) [%] | cleaved PARP positive nuclei fraction (COLO792) [%] | cleaved PARP positive nuclei fraction (COLO800) [%] | cleaved PARP positive nuclei fraction (COLO829) [%] | cleaved PARP positive nuclei fraction (G361) [%] | cleaved PARP positive nuclei fraction (IPC-298) [%] | cleaved PARP positive nuclei fraction (IST-MEL1) [%] | cleaved PARP positive nuclei fraction (LB2518-MEL) [%] | cleaved PARP positive nuclei fraction (LOXIMVI) [%] | cleaved PARP positive nuclei fraction (MEL-HO) [%]
Nc1nc(F)nc2c1ncn2[C@@H]1O[C@H](CO)[C@@H](O)[C@@H]1O [fludarabine] + COCC[n+]1c2c(n(Cc3cnccn3)c1C)C(=O)c1ccccc1C2=O [YM155] (first compound 0.2 µM, partner dose 0.0004 µM) | 7420 | 103 | 92 | 4590 | 74.6 | 342 | 132 | 74.9 | 125 | 144 | 96.1 | 77.7 | 147 | 173 | 54.7 | 146 | 106 | 180 | 100
C=C(c1ccc(C(=O)O)cc1)c1cc2c(cc1C)C(C)(C)CCC2(C)C [Bexarotene] + CC(=O)c1c(C)c2cnc(Nc3ccc(N4CCNCC4)cn3)nc2n(C2CCCC2)c1=O [palbociclib] (first compound 2 µM, partner dose 0.04 µM) | 197 | 126 | 64.1 | 161 | 113 | 236 | 119 | 190 | 341 | 229 | 150 | 35.2 | 121 | 108 | 270 | 75.9 | 194 | 120 | 32.2
Nc1ccn([C@@H]2O[C@H](CO)[C@@H](O)C2(F)F)c(=O)n1 [gemcitabine] + Nc1cccc2c1CN(C1CCC(=O)NC1=O)C2=O [lenalidomide] (first compound 0.0004 µM, partner dose 1 µM) | 98.6 | 148 | 124 | 94.7 | 139 | 185 | 241 | 93.6 | 154 | 160 | 39.1 | 285 | 220 | 238 | 50.2 | 209 | 110 | 27.8 | 77.7
O=C(O)[C@@H]1[O][Sb](=[O])([O][Sb]2(=[O])[O][C@H]([C@H](O)CO)[C@H](O)[C@H](C(=O)O)[O]2)[O][C@H]([C@H](O)CO)[C@@H]1O (some centres not stated) [stibogluconate] + O=C(O)c1ccc2c(c1)nc(Nc1cccc(Cl)c1)c1ccncc12 [CX4945] (first compound 2 µM, partner dose 0.4 µM) | 109 | 133 | 160 | 86.1 | 161 | 79.9 | 108 | 190 | 125 | 62.3 | 99.8 | 98.9 | 61.4 | 126 | 132 | 71.9 | 199 | 38.2 | 95
C=C(c1ccc(C(=O)O)cc1)c1cc2c(cc1C)C(C)(C)CCC2(C)C [Bexarotene] + Cn1c(Nc2ccc(C(F)(F)F)cc2)nc2cc(Oc3ccnc(-c4ncc(C(F)(F)F)[nH]4)c3)ccc21 [CHIR265] (first compound 2 µM, partner dose 0.08 µM) | 164 | 132 | 98.3 | 64.6 | 82.4 | 73.7 | 105 | 283 | 190 | 47.2 | 199 | 22 | 70.3 | 133 | 120 | 48.2 | 68 | 54 | 92.2
CO[C@H]1C[C@@H]2CC[C@@H](C)[C@@](O)(O2)C(=O)C(=O)N2CCCC[C@H]2C(=O)O[C@H]([C@H](C)C[C@@H]2CC[C@@H](OCCO)[C@H](OC)C2)CC(=O)[C@H](C)/C=C(\C)[C@@H](O)[C@@H](OC)C(=O)[C@H](C)C[C@H](C)/C=C/C=C/C=C/1C [everolimus] + C[C@]1(c2nc3c(C(N)=O)cccc3[nH]2)CCCN1 [Veliparib] (first compound 0.02 µM, partner dose 1.4 µM) | 1420 | 107 | 88.6 | 862 | 91.3 | 133 | 113 | 4180 | 174 | 50.9 | 118 | 219 | 82.6 | 207 | 316 | 39.2 | 74.1 | 422 | 121
Cc1cc(Nc2cc(N3CCN(C)CC3)nc(/C=C/c3ccccc3)n2)n[nH]1 + Cn1nnc2c(C(N)=O)ncn2c1=O [temozolomide] (first compound 0.04 µM, partner dose 2 µM) | 113 | 96.7 | 197 | 236 | 79.8 | 72.1 | 118 | 119 | 128 | 97.6 | 64.8 | 168 | 163 | 44.2 | 45.4 | 67.3 | 245 | 22.1 | 25.6
CS(=O)(=O)CCNCc1ccc(-c2ccc3ncnc(Nc4ccc(OCc5cccc(F)c5)c(Cl)c4)c3c2)o1 [lapatinib] + O=C(O)c1ccc2c(c1)nc(Nc1cccc(Cl)c1)c1ccncc12 [CX4945] (first compound 0.8 µM, partner dose 0.4 µM) | 152 | 45.1 | 129 | 177 | 84.6 | 192 | 150 | 94.8 | 168 | 72.7 | 99.8 | 89.5 | 161 | 114 | 141 | 29.4 | 162 | 390 | 127
